Reference: publication PMC8442339
No constants are given. Whether binding was seen depends on the method and setting. Binding seen in cells or lysates may run through a third protein. Some entries that bind do so weakly or less than the wild type. Tags and fused reporters may be left off the sequences shown.

Molecular target: T1, Wild-type p53-induced gene 1 (Wig1), Flag-tagged (UniProt Q9HA38)
T1 sequence: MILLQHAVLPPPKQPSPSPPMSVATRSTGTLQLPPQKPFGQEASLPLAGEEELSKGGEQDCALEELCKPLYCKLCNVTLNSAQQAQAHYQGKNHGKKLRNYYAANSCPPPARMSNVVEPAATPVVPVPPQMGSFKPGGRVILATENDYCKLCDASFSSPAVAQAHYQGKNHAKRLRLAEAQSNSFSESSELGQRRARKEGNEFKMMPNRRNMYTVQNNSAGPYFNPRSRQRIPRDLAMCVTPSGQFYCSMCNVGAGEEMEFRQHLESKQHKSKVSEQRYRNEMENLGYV
Assay: co-IP; lysate of transfected prostate cancer cells 48 h after transfection (Wig1-Flag group against control group); lysis buffer 20 mm/L Tris HCl, 1% np40, 150 mmol/L NaCl, 10% glycerol, protease inhibitors; cleared with Protein G Agarose beads; target protein antibodies added; SDS-PAGE and Western blot

binding: binds
B1: Eukaryotic translation initiation factor 5B (eIF5B) (protein, UniProt O60841 1-1220)
chain: MGKKQKNKSEDSTKDDIDLDALAAEIEGAGAAKEQEPQKSKGKKKKEKKKQDFDEDDILKELEELSLEAQGIKADRETVAVKPTENNEEEFTSKDKKKKGQKGKKQSFDDNDSEELEDKDSKSKKTAKPKVEMYSGSDDDDDFNKLPKKAKGKAQKSNKKWDGSEEDEDNSKKIKERSRINSSGESGDESDEFLQSRKGQKKNQKNKPGPNIESGNEDDDASFKIKTVAQKKAEKKERERKKRDEEKAKLRKLKEKEELETGKKDQSKQKESQRKFEEETVKSKVTVDTGVIPASEEKAETPTAAEDDNEGDKKKKDKKKKKGEKEEKEKEKKKGPSKATVKAMQEALAKLKEEEERQKREEEERIKRLEELEAKRKEEERLEQEKRERKKQKEKERKERLKKEGKLLTKSQREARARAEATLKLLQAQGVEVPSKDSLPKKRPIYEDKKRKKIPQQLESKEVSESMELCAAVEVMEQGVPEKEETPPPVEPEEEEDTEDAGLDDWEAMASDEETEKVEGNKVHIEVKENPEEEEEEEEEEEEDEESEEEEEEEGESEGSEGDEEDEKVSDEKDSGKTLDKKPSKEMSSDSEYDSDDDRTKEERAYDKAKRRIEKRRLEHSKNVNTEKLRAPIICVLGHVDTGKTKILDKLRHTHVQDGEAGGITQQIGATNVPLEAINEQTKMIKNFDRENVRIPGMLIIDTPGHESFSNLRNRGSSLCDIAILVVDIMHGLEPQTIESINLLKSKKCPFIVALNKIDRLYDWKKSPDSDVAATLKKQKKNTKDEFEERAKAIIVEFAQQGLNAALFYENKDPRTFVSLVPTSAHTGDGMGSLIYLLVELTQTMLSKRLAHCEELRAQVMEVKALPGMGTTIDVILINGRLKEGDTIIVPGVEGPIVTQIRGLLLPPPMKELRVKNQYEKHKEVEAAQGVKILGKDLEKTLAGLPLLVAYKEDEIPVLKDELIHELKQTLNAIKLEEKGVYVQASTLGSLEALLEFLKTSEVPYAGINIGPVHKKDVMKASVMLEHDPQYAVILAFDVRIERDAQEMADSLGVRIFSAEIIYHLFDAFTKYRQDYKKQKQEEFKHIAVFPCKIKILPQYIFNSRDPIVMGVTVEAGQVKQGTPMCVPSKNFVDIGIVTSIEINHKQVDVAKKGQEVCVKIEPIPGESPKMFGRHFEATDILVSKISRQSIDALKDWFRDEMQKSDWQLIVELKKVFEII
